At least one compound was matched to its structure with a doubt left.
Tested on: DispersinB
Experiment: Effect of anisic acid on enzymatic activity of DispersinB
Assay type: biochemical, Aggregatibacter actinomycetemcomitans
Details: 50 mM citrate buffer, 100 mM NaCl

Question: Which “% activity” value (Anisic acid 0%) does the source give for `COc1ccc(C(=O)O)cc1` [Anisic acid, methoxybenzoic acid] here?
Answer: The value was 100%.

Question: What about the “% activity” value (Anisic acid 0.30%) of the same compound?
Answer: Its value is 102%.

— patent US20240041991A1, “STABLE LIQUID DISPERSINB COMPOSITIONS” (KANE BIOTECH INC., priority 2020, published 2024)
